Results published in paper PMC11336930.
These are yes or no findings as the source states them, for the method shown. In cells and extracts the contact can be indirect. Some results given as binding are weak or reduced against the parent protein; the word gives no strength.

By UniProt entry, the sequences of proteins in these tests, tags left out.
UniProt P07355: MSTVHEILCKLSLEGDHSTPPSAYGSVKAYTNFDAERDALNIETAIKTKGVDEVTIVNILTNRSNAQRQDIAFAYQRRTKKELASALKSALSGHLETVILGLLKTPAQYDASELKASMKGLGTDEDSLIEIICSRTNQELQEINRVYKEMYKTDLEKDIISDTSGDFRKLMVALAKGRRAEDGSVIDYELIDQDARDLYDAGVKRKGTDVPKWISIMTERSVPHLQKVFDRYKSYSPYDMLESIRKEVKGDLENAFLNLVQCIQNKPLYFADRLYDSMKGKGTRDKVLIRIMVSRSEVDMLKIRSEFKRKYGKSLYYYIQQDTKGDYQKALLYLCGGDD
UniProt P07947: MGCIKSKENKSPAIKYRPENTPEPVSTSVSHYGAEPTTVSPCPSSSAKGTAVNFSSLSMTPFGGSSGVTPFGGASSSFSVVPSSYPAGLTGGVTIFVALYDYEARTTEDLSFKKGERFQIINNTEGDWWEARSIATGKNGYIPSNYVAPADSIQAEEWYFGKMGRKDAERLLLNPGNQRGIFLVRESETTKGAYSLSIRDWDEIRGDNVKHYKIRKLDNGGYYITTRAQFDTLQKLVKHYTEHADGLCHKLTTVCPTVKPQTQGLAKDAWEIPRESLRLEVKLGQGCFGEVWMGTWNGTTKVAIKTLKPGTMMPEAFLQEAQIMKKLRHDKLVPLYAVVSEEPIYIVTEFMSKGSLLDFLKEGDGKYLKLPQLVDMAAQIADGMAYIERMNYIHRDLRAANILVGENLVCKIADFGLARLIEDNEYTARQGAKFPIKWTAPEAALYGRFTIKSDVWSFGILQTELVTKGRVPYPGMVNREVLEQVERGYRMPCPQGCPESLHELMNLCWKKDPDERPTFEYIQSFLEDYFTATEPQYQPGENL
UniProt P60903: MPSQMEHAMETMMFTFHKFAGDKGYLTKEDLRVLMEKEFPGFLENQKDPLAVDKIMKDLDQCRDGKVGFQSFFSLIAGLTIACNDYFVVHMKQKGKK

Tests used:
Flag‐ANXA2 = Flag‐ANXA2 (UniProt P07355); assay: co-IP; exogenous co‐IP of GFP‐Yes1 and Flag‐ANXA2; cells not given
[1] = biological target: Annexin A2 (ANXA2) (human (endogenous in Cd-SV-HUC-1)) (UniProt P07355); assay: co-IP; endogenous proteins in Cd‐SV‐HUC‐1 cells; also in cells transfected with siRNA against mtiRL (knockdown of the tsRNA)

binding (Flag‐ANXA2)	binding [1]	Substance
binds		GFP‐Yes1 (from UniProt P07947 1-543) (enzyme)
	binds	S100A10 (from UniProt P60903 1-97)
	binds	Yes proto‐oncogene 1 (Yes1) (from UniProt P07947 1-543) (enzyme)
